# Results: the odorant receptor screen of Mainland et al. (2015)
# Several values for one entry are separate records, joined by “and”; a condition that tells them apart may be missing. Identical values can stand only once. The list shows a part of the results. Single wells; the ratio to wells without odorant was worked out here, and repeats agree poorly.
# Tests used:
# Experiment in all cases: odorant receptor activation (CRE luciferase / Renilla) (fold of no-odor wells); higher = more activation
# Conditions in all cases: 100 µM
# OR14L1 clone 1029 = tested on: OR14L1 clone 1029
# OR1A1 P285S clone 1531 = tested on: OR1A1 P285S clone 1531
# OR1A1 R128H clone 1528 = tested on: OR1A1 R128H clone 1528
# OR1A1 V233M clone 1287 = tested on: OR1A1 V233M clone 1287
# OR1A1 V233M clone 1530 = tested on: OR1A1 V233M clone 1530
# OR1A1 clone 1529 = tested on: OR1A1 clone 1529
# OR1A2 clone 1158 = tested on: OR1A2 clone 1158
# OR1C1 clone 1044 = tested on: OR1C1 clone 1044
# OR1D2 clone 1376 = tested on: OR1D2 clone 1376
# OR1D5 clone 1289 = tested on: OR1D5 clone 1289
# OR1D5 clone 1692 = tested on: OR1D5 clone 1692
# OR1E1 clone 1257 = tested on: OR1E1 clone 1257
# OR1E1 clone 1546 = tested on: OR1E1 clone 1546
# OR1E2 C27R clone 1447 = tested on: OR1E2 C27R clone 1447
# OR1E2 clone 1517 = tested on: OR1E2 clone 1517
# OR1F1 F75S clone 1281 = tested on: OR1F1 F75S clone 1281
# OR1F12 clone 1694 = tested on: OR1F12 clone 1694
# OR1G1 clone 1488 = tested on: OR1G1 clone 1488
# [1] = tested on: OR1I1 P139R/Y252S clone 1468
# OR1J1 clone 1696 = tested on: OR1J1 clone 1696
SMILES,odorant receptor activation (OR14L1 clone 1029),odorant receptor activation (OR1A1 P285S clone 1531),odorant receptor activation (OR1A1 R128H clone 1528),odorant receptor activation (OR1A1 V233M clone 1287),odorant receptor activation (OR1A1 V233M clone 1530),odorant receptor activation (OR1A1 clone 1529),odorant receptor activation (OR1A2 clone 1158),odorant receptor activation (OR1C1 clone 1044),odorant receptor activation (OR1D2 clone 1376),odorant receptor activation (OR1D5 clone 1289),odorant receptor activation (OR1D5 clone 1692),odorant receptor activation (OR1E1 clone 1257),odorant receptor activation (OR1E1 clone 1546),odorant receptor activation (OR1E2 C27R clone 1447),odorant receptor activation (OR1E2 clone 1517),odorant receptor activation (OR1F1 F75S clone 1281),odorant receptor activation (OR1F12 clone 1694),odorant receptor activation (OR1G1 clone 1488),odorant receptor activation [1],odorant receptor activation (OR1J1 clone 1696)
CC(C)=CCCC(C)=CC=O [citral],1.09,2.19,1.53,4.54 and 2.13,2.8,2.44,0.894,1.15,0.234,1.16,1.16,1.12,0.776,0.14,0.911,1.4,0.011,0.999,1.28,1.21
CCCCCCCCOC(C)=O [octyl acetate],1.12,1.21,1.15,0.509 and 1.5,1.11,1.06,0.954,0.947,1.24,1.18,0.692,1.09,0.958,1.17,0.873,1.11,0.73,0.967,0.803,0.853
O=C1CCCCCCCCCCCC(=O)OCCO1 [ethylene brassylate],2.01,1.73,1.69,4.01 and 1.66,2.01,1.78,1.64,1.67,1.53,1.8,0.929,1.58,1.22,1.84,1.48,1.5,0.675,0.945,1.57,0.874
CC(=O)OC1CC2CCC1(C)C2(C)C (stereo not given) [isobornyl acetate],0.961,0.764 and 0.919,0.864 and 1.24,1.15 and 0.598 and 0.871,0.984 and 1.35,0.82 and 1.18,0.843,0.63,1.12,0.948 and 0.966,0.901,1.06,1.02 and 1.06,0.788,0.941 and 1.1,1.2 and 1,1.16,1.14 and 1,1.1,1.15
CCCCCCCC=O [octyl aldehyde],1.32,1.02,1.11,0.585 and 1.12,0.976,0.797,0.917,1.23,0.961,1.12,0.75,1.07,0.739,0.806,1.64,1,0.746,1.1,1.04,0.762
C=CCSCC=C [diallyl sulfide],1.02,1.25,1.42,2.34 and 1.04,1.41,1.51,1.31,0.949,1.05,1.21,0.818,0.992,1.25,1.17,1.52,1.05,0.637,1.01,0.969,0.662
CCC1(O)C2(C)CCC(C2)C1(C)C (stereo not given) [2-ethylfenchol],2.81,0.947,1.14,0.968 and 2.15,1.23,1.07,0.908,3.37,0.444,0.98,0.9,1.49,1.1,0.861,1.16,0.7,0.847,1.22,1.47,0.995
CCCCCCCC=CC=O [2-decenal],14.2,1.13,1.55,1.54 and 2.52,1.56,1.46,1.2,10,1.23,1.06,1.21,2.46,1.42,1.15,2.27,0.943,1.16,2.04,2.81,1.1
C=CCc1ccc(OC)c(OC)c1 [eugenol methyl ether],1.75,1.74,1.88,5.84 and 2.38,1.94,1.81,1.67,1.59,1.57,1.78,0.889,1.57,1.52,1.34,1.54,1.28,0.64,1.08,1.36,0.699
CC(=O)C(C)=O [diacetyl],1.11,1.36,1.98,2.38 and 0.921,1.44,1.6,1.44,1.09,1.08,1.37,0.855,1.2,1.59,1.08,1.57,1.3,0.647,1.16,1.19,0.704
C=CC(C)(O)CCC=C(C)C (stereo not given) [linalool],1.54,1.35,1.23,2.61 and 1.91,1.43,1.28,1.12,2.67,1.42,0.964,0.856,0.814,0.857,1.15,1.21,0.812,1.04,1.1,1.26,0.72
CCCCCCCOC(C)=O [heptyl acetate],0.809,0.641 and 1.39,0.731 and 1.56,1.43 and 1.05 and 1.26,1.34 and 1.56,0.753 and 1.39,0.917,0.473,1.31,0.596 and 1.05,0.791,0.909 and 1.19,1.03 and 1.12,0.973,0.662 and 1.19,1.36 and 1.22,0.67,1.14 and 1.38,1.03 and 1.42,0.739
CCCCCC(=O)O [caproic acid],0.768,1.15,1.09,1.17 and 0.786,0.862,0.903,0.851,0.926,0.162,0.773,0.831,0.818,0.687,0.125,0.969,1.07,0.917,0.827,1.29,0.943
CC(C)CCC(=O)O [4-methylvaleric acid],1.96,0.781,0.863,1 and 1.26,1.01,0.973,0.745,2.06,0.372,0.867,0.921,1.26,1.17,0.917,1.21,0.933,0.825,0.922,0.929,0.924
"CC1CCC(C(C)C)C(O)C1 (single isomer, unassigned; (-)) [(-)-menthol]",3.82,2.62,3.81,4.05 and 9.72,2.27,2.69,0.823,4.02,0.336,0.696,0.89,0.982,1.36,1.02,4.74,0.692,0.908,2.64,4.98,0.837
O=CCc1ccccc1 [phenyl acetaldehyde],1.09,0.788,1.3,0.641 and 1.61,1.47,1.21,1.03,1.36,2.31,1.11,1.66,1.61,1.19,1.3,0.996,1.2,1.93,1.47,1.49,1.69
CC12CCC(CC1)C(C)(C)O2 [cineole],0.83,1.05,0.984,1.4 and 0.834,0.961,0.852,0.675,0.675,0.176,0.829,0.843,1.19,0.686,0.123,1.12,1.07,0.88,0.909,0.921,1.21
CC(=O)OC(C)(C)C1CC=C(C)CC1 (stereo not given) [terpinyl acetate],1.62,1.35,1.7,6.24 and 3.58,2.84,2.14,1.2,1.42,0.927,0.942,0.63,1.34,1.42,0.753,1.18,0.842,0.856,1.03,0.918,1.07
CCCCCCOC(=O)CCC [hexyl butyrate],0.756,0.938 and 1.04,1.01 and 1.1,1.16 and 1.05 and 1.04,1.49 and 1.21,0.921 and 1.12,0.815,0.684,1.44,0.82 and 0.902,0.809,0.814 and 1.16,1.13 and 0.814,0.707,0.823 and 0.831,1.09 and 0.809,0.621,0.913 and 0.826,1.05 and 1.09,0.885
COC(=O)c1ccccc1O [methyl salicylate],1.27,0.976,1.19,2.57 and 1.34,1.38,1.17,0.906,1.04,1.03,0.891,0.851,0.709,1,1.34,1.16,0.919,1.03,0.944,0.825,0.787
CC(=O)OCC=C(C)CCC=C(C)C [geranyl acetate],1.5,0.732 and 1.97,1.43 and 2.24,2.82 and 1.09 and 1.85,3.47 and 2.8,2.19 and 2.55,0.788,1.28,1.69,0.965 and 1.17,1.45,0.864 and 1.17,1.11 and 1.55,0.982,0.758 and 1.49,0.992 and 1.28,1.25,1.01 and 1.67,1.02 and 1.62,1.13
CCCC(=O)O [butyric acid],0.99,1.28,0.91,2.36 and 0.843,1.04,0.948,0.928,1.04,0.195,0.887,0.838,0.99,0.773,0.148,1.34,1.03,1.16,1.08,1.13,1.03
O=C1CCCCCCCCCCCCCCO1 [pentadecalactone],0.967,0.687,0.971,0.757 and 0.928,1.09,0.906,0.774,0.73,1.01,0.767,0.687,0.745,0.843,1.12,0.696,0.883,0.709,0.75,0.857,0.801
COc1cc(C=O)ccc1O [vanillin],1.24,0.966,1,3.36 and 1.79,1.15,0.994,0.841,0.928,0.911,1.03,0.822,0.925,0.83,0.838,0.847,1,0.594,1.04,1.2,0.796
"CC1CCC(C(C)C)C(O)C1 (single isomer, unassigned; (+)) [(+)-menthol]",3.73,1.68,1.76,5.62 and 8.67,2.72,2.37,1.35,2.89,0.606,0.907,0.783,0.974,1.25,0.858,1.18,0.613,0.845,1.34,1.23,0.886
CC1=CCC(C(C)(C)O)CC1 (stereo not given) [terpineol],1.05,1.79,1.64,5.99 and 7.59,2.66,2.36,1.09,0.964,1.26,0.944,0.621,1.11,1.01,0.898,0.804,1.04,0.861,0.744,0.715,1.12
